According to article PMC11589570, “Critical assessment of LC3/GABARAP ligands used for degrader development and ligandability of LC3/GABARAP binding pockets” (Nature Communications, 2024):
“And” between values parts separate entries of the source, which are not always exact repeats. Equal values may be shown once. This continues a long series; more values of the same kind are listed elsewhere.

Tested on: RPE1 cells
Experiment: Cell growth assay (IncuCyte confluence over 72 h)
Assay type: cell-based
In short: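 Phase confluence (% area covered by cells) imaged every 2 h for 72 h after compound addition; cells in DMEM/10% FBS, seeded 24 h before treatment. Controls were 0.1% DMSO, 250 nM Torin1 and 200 ng/mL Bafilomycin (final). Each point averages three wells.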

## Cc1ccc(C)c(S(=O)(=O)Nc2cc(SCC(=O)O)c(O)c3ccccc23)c1 [compound 8]
3 uM, 18 h, listed as KT1
  RPE1 cell growth: 35 and 48 and 34
3 uM, 20 h, listed as KT1
  RPE1 cell growth: 38 and 52 and 36
3 uM, 22 h, listed as KT1
  RPE1 cell growth: 39 and 54 and 37
3 uM, 24 h, listed as KT1
  RPE1 cell growth: 42 and 58 and 39
3 uM, 26 h, listed as KT1
  RPE1 cell growth: 46 and 63 and 43
3 uM, 28 h, listed as KT1
  RPE1 cell growth: 47 and 68
3 uM, 30 h, listed as KT1
  RPE1 cell growth: 50 and 73
3 uM, 32 h, listed as KT1
  RPE1 cell growth: 55 and 77 and 56
3 uM, 34 h, listed as KT1
  RPE1 cell growth: 60 and 81 and 59
3 uM, 36 h, listed as KT1
  RPE1 cell growth: 64 and 84 and 62
3 uM, 38 h, listed as KT1
  RPE1 cell growth: 67 and 88
3 uM, 40 h, listed as KT1
  RPE1 cell growth: 72 and 91 and 71
3 uM, 42 h, listed as KT1
  RPE1 cell growth: 76 and 94 and 75
3 uM, 44 h, listed as KT1
  RPE1 cell growth: 80 and 96 and 79
3 uM, 46 h, listed as KT1
  RPE1 cell growth: 83 and 98
3 uM, 48 h, listed as KT1
  RPE1 cell growth: 87 and 99
3 uM, 50 h, listed as KT1
  RPE1 cell growth: 91 and 99 and 90
3 uM, 52 h, listed as KT1
  RPE1 cell growth: 94 and 100
3 uM, 54 h, listed as KT1
  RPE1 cell growth: 96 and 100 and 97
3 uM, 56 h, listed as KT1
  RPE1 cell growth: 97 and 100 and 98
3 uM, 58 h, listed as KT1
  RPE1 cell growth: 98 and 100 and 99
3 uM, 60 h, listed as KT1
  RPE1 cell growth: 99 and 100
3 uM, 62 h, listed as KT1
  RPE1 cell growth: 99 and 100
3 uM, 64 h
  RPE1 cell growth: 100
3 uM, 66 h
  RPE1 cell growth: 100
3 uM, 68 h
  RPE1 cell growth: 100
3 uM, 70 h
  RPE1 cell growth: 100
3 uM, 72 h
  RPE1 cell growth: 100
5 uM, 16 h, listed as KT1
  RPE1 cell growth: 30 and 46
5 uM, 18 h, listed as KT1
  RPE1 cell growth: 31 and 50 and 32
5 uM, 20 h, listed as KT1
  RPE1 cell growth: 33 and 54 and 35
5 uM, 22 h, listed as KT1
  RPE1 cell growth: 35 and 55 and 36
5 uM, 24 h, listed as KT1
  RPE1 cell growth: 36 and 62 and 39
5 uM, 26 h, listed as KT1
  RPE1 cell growth: 39 and 63 and 41
5 uM, 28 h, listed as KT1
  RPE1 cell growth: 43 and 68 and 44
5 uM, 30 h, listed as KT1
  RPE1 cell growth: 43 and 73 and 49
5 uM, 32 h, listed as KT1
  RPE1 cell growth: 48 and 77 and 51
5 uM, 34 h, listed as KT1
  RPE1 cell growth: 52 and 80 and 55
5 uM, 36 h, listed as KT1
  RPE1 cell growth: 56 and 85 and 59
5 uM, 38 h, listed as KT1
  RPE1 cell growth: 57 and 89 and 62
5 uM, 40 h, listed as KT1
  RPE1 cell growth: 62 and 90 and 66
5 uM, 42 h, listed as KT1
  RPE1 cell growth: 65 and 93 and 68
5 uM, 44 h, listed as KT1
  RPE1 cell growth: 69 and 96 and 74
5 uM, 46 h, listed as KT1
  RPE1 cell growth: 72 and 98 and 79
5 uM, 48 h, listed as KT1
  RPE1 cell growth: 77 and 99 and 81
5 uM, 50 h, listed as KT1
  RPE1 cell growth: 80 and 99 and 86
5 uM, 52 h, listed as KT1
  RPE1 cell growth: 84 and 100 and 89
5 uM, 54 h, listed as KT1
  RPE1 cell growth: 88 and 100 and 93
5 uM, 56 h, listed as KT1
  RPE1 cell growth: 90 and 100 and 95
5 uM, 58 h, listed as KT1
  RPE1 cell growth: 92 and 100 and 97
5 uM, 60 h, listed as KT1
  RPE1 cell growth: 95 and 100 and 98
5 uM, 62 h, listed as KT1
  RPE1 cell growth: 96 and 100 and 99
5 uM, 64 h, listed as KT1
  RPE1 cell growth: 97 and 100 and 99
5 uM, 66 h, listed as KT1
  RPE1 cell growth: 98 and 100
5 uM, 68 h, listed as KT1
  RPE1 cell growth: 99 and 100
5 uM, 70 h, listed as KT1
  RPE1 cell growth: 99 and 100
5 uM, 72 h
  RPE1 cell growth: 100
10 uM, 14 h, listed as KT1
  RPE1 cell growth: 29 and 35 and 28
10 uM, 16 h, listed as KT1
  RPE1 cell growth: 31 and 34 and 30
10 uM, 18 h, listed as KT1
  RPE1 cell growth: 32 and 39
10 uM, 20 h, listed as KT1
  RPE1 cell growth: 34 and 42 and 33
10 uM, 22 h, listed as KT1
  RPE1 cell growth: 36 and 42 and 34
10 uM, 24 h, listed as KT1
  RPE1 cell growth: 37 and 46 and 39
10 uM, 26 h, listed as KT1
  RPE1 cell growth: 40 and 47
10 uM, 28 h, listed as KT1
  RPE1 cell growth: 43 and 51 and 42
10 uM, 30 h, listed as KT1
  RPE1 cell growth: 45 and 55
10 uM, 32 h, listed as KT1
  RPE1 cell growth: 48 and 61 and 49
10 uM, 34 h, listed as KT1
  RPE1 cell growth: 51 and 65 and 53
10 uM, 36 h, listed as KT1
  RPE1 cell growth: 54 and 68 and 56
10 uM, 38 h, listed as KT1
  RPE1 cell growth: 57 and 74 and 60
10 uM, 40 h, listed as KT1
  RPE1 cell growth: 60 and 77 and 64
10 uM, 42 h, listed as KT1
  RPE1 cell growth: 64 and 81 and 67
10 uM, 44 h, listed as KT1
  RPE1 cell growth: 65 and 87 and 70
10 uM, 46 h, listed as KT1
  RPE1 cell growth: 69 and 89 and 75
10 uM, 48 h, listed as KT1
  RPE1 cell growth: 73 and 92 and 78
10 uM, 50 h, listed as KT1
  RPE1 cell growth: 77 and 94 and 82
10 uM, 52 h, listed as KT1
  RPE1 cell growth: 80 and 96 and 85
10 uM, 54 h, listed as KT1
  RPE1 cell growth: 83 and 97 and 89
10 uM, 56 h, listed as KT1
  RPE1 cell growth: 86 and 98 and 92
10 uM, 58 h, listed as KT1
  RPE1 cell growth: 89 and 99 and 94
10 uM, 60 h, listed as KT1
  RPE1 cell growth: 91 and 100 and 96
10 uM, 62 h, listed as KT1
  RPE1 cell growth: 93 and 100 and 97
10 uM, 64 h, listed as KT1
  RPE1 cell growth: 95 and 100 and 98
10 uM, 66 h, listed as KT1
  RPE1 cell growth: 97 and 100 and 99
10 uM, 68 h, listed as KT1
  RPE1 cell growth: 98 and 100
10 uM, 70 h, listed as KT1
  RPE1 cell growth: 99 and 100
10 uM, 72 h, listed as KT1
  RPE1 cell growth: 99 and 100
